For the assay, the target named is T1, His-tagged Snf1 (S. cerevisiae) (UniProt P06782).
T1 sequence: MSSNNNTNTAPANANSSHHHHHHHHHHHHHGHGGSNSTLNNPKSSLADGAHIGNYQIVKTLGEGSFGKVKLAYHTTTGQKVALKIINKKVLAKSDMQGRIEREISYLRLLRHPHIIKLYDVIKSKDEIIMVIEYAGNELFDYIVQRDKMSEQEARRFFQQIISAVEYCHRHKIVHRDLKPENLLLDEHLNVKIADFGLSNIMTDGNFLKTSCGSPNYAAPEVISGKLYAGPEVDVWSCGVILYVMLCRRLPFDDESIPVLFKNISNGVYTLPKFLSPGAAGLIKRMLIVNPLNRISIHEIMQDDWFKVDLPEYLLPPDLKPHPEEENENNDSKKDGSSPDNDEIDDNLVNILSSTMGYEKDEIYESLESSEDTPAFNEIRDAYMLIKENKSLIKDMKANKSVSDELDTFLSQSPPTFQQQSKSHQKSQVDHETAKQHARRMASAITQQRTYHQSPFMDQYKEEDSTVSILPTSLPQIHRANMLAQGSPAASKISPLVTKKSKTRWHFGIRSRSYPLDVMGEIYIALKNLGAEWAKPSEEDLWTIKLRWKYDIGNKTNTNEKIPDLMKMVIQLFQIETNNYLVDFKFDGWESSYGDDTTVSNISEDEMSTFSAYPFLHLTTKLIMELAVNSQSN
The experiment in a line: pull-down; co-purification from lysate of E. coli co-expressing the subunits; His-tagged Snf1 held on Talon beads (the results say nickel column), 1 h at 4 °C; 25 mM Tris-HCl, 200 mM NaCl, 10 mM imidazole, 5 mM β-mercaptoethanol, pH 7.4; washed three times; eluted with 200 mM imidazole.

Results are given in words; binding and its absence hold for the method and conditions named. In cells and extracts the contact can be indirect. Some results given as binding are weak or reduced against the parent protein; the word gives no strength. Sequences can lack the tags named with a protein.

Experimental findings from PMC10851228 are described below.

B1: Snf4 (protein, UniProt P12904 1-322)
chain: MKPTQDSQEKVSIEQQLAVESIRKFLNSKTSYDVLPVSYRLIVLDTSLLVKKSLNVLLQNSIVSAPLWDSKTSRFAGLLTTTDFINVIQYYFSNPDKFELVDKLQLDGLKDIERALGVDQLDTASIHPSRPLFEACLKMLESRSGRIPLIDQDEETHREIVVSVLTQYRILKFVALNCRETHFLKIPIGDLNIITQDNMKSCQMTTPVIDVIQMLTQGRVSSVPIIDENGYLINVYEAYDVLGLIKGGIYNDLSLSVGEALMRRSDDFEGVYTCTKNDKLSTIMDNIRKARVHRFFVVDDVGRLVGVLTLSDILKYILLGSN
Regarding B1, the binding entry is “binds”.

B2: Gal83 (protein, UniProt Q04739 1-417)
chain: MAGDNPENKDASMLDVSDAASNTTINGKHSADSTNEASLAYTFSQMNVDNPNELEPQHPLRHKSSLIFNDDDDDEIPPYSNHAENGSGETFDSDDDIDASSSSSIDSNEGDIHDADMTGNTLQKMDYQPSQQPDSLQNQGFQQQQEQQQGTVEGKKGRAMMFPVDITWQQGGNKVYVTGSFTGWRKMIGLVPVPGQPGLMHVKLQLPPGTHRFRFIVDNELRFSDYLPTATDQMGNFVNYMEVSAPPDWGNEPQQHLAEKKANHVDDSKLSKRPMSARSRIALEIEKEPDDMGDGYTRFHDETPAKPNLEYTQDIPAVFTDPNVMEQYYLTLDQQQNNHQNMAWLTPPQLPPHLENVILNSYSNAQTDNTSGALPIPNHVILNHLATSSIKHNTLCVASIVRYKQKYVTQILYTPLQ
As for B2, the binding entry is given as “binds”.
